{
  "source": "paper PMC4015959",
  "about": "“The Structural and Functional Basis of Catalysis Mediated by NAD(P)H:acceptor Oxidoreductase (FerB) of Paracoccus denitrificans” (PLoS ONE, 2014)",
  "origin": "cited, not measured here",
  "tested_on": "apoflavodoxin from Anabaena PCC 7119",
  "conditions": "cited from earlier work",
  "data": [
    {"smiles": "Cc1cc2nc3c(=O)[nH]c(=O)nc-3n(C[C@H](O)[C@H](O)[C@H](O)COP(=O)(O)O)c2cc1C", "note": "[FMN, flavin mononucleotide]", "values": [
      {"measurement": "Gibbs binding energy component, isoalloxazine part", "result": -5.02, "unit": "kcal/mol"},
      {"measurement": "Gibbs binding energy component, phosphate part", "result": -6.93, "unit": "kcal/mol"},
      {"measurement": "Gibbs binding energy component, ribityl part", "result": -1.2, "unit": "kcal/mol"},
      {"measurement": "overall Gibbs binding energy", "result": -13.1, "unit": "kcal/mol"}
    ]}
  ]
}
